PubChem BioAssay AID1508600 (Functional Genomics Laboratory (NCATS/FGL), 2020)
The campaign covered roughly 53,000 sequences. About 3,700 (7%) were called active.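 Rule for the calls: active = gene knockdowns whose robust z-score for IL-1 alpha signal is at least 2 or at most -2, so actives lie on both sides; inactive = the rest.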 This is one part of the list.

Experiment: Components of the Cytosolic LPS Sensing Pathway: Gene Identification via Genome-wide siRNA Screen;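 note: robust z of the log signal after scaling to non-targeting control siRNA wells of the plate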
Conditions: RAW264.7 macrophages, IL-1a HTRF, actives lie on both sides, screened at 100 nM (by protocol), cells primed 5 h with Pam3CSK4 first
In short: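 Mouse macrophage line RAW264.7 is transfected with siRNA (100 nM final), grown 48h, primed with TLR ligand Pam3CSK4 5 h and given intracellular LipidA 24 h. IL-1a in supernatant is read by HTRF and viability by luminescence.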

| Sequence | z-score |
| --- | --- |
| GGUACAAUUCUUCUUUCGUTT against Olfr1420 | inactive: -0.55 |
| GGGCAUCACUUGUAAUUAATT against Bcl10 | active: -2.06 |
| GCUAAUCUCUCAAAUGUUUTT against Kpna1 | inactive: 0.506 |
| GGUUCGAAAUUUUCUAACCTT against Gpr50 | inactive: 1.24 |
| GGAACCUUUCAGAAAUAUATT against Calhm5 | inactive: -0.53 |
| GCAAGAAGUAAUCAACUUUTT against Cnot9 | inactive: -0.997 |
| GCUCCACACUACGUGUCAUTT against Olfr476 | inactive: 1.66 |
| GGAGGAUCACCCAUCAAAUTT against Oxct1 | inactive: -0.083 |
| GGAAAAAUGAACUUCAGUGTT against Cetn2 | inactive: 1.19 |
| GGCCAAAGGAGUUCAUGAUTT against Gcm2 | inactive: -0.904 |
| CCUGCUCUUCGUUAUCUUGTT against Olfr552 | inactive: 1.59 |
| CCCUCACUGCUCAAAUUCUTT against Ifna12 | inactive: -0.0886 |
| GCACAACUCAGAAGUAAUUTT against Ghr | inactive: 0.271 |
| GGUAUCUACCAGUACGAGATT against Izumo4 | inactive: -1.59 |
| GGGAUCAUCUCUUUUGCUGTT against Olfr720 | inactive: -1.33 |
| GGAAGUUACAGAUGUGGCUTT against Nog | inactive: -0.879 |
| GCUCUCACAAGAUUGUUUCTT against Tcaf3 | inactive: -0.408 |
| GGACUAUCCUCACUCCCUUTT against Pigo | inactive: -0.0578 |
| GGAUUUGACUAACAUAGGGTT against Pimreg | inactive: 0.724 |
| GGAGAUGGUUAUGUGGGAUTT against Tgoln2 | inactive: 0.879 |
| GGAACUACGAAGUCUGUUCTT against Elavl1 | inactive: 0.271 |
| GGGAGAAGAGAUUUUCUUGTT against Clec16a | inactive: 1.17 |

A different layout for part of the listing above:
CCCUCACUGCUCAAAUUCUTT against Ifna12
  z-score: inactive: -0.0886
GCACAACUCAGAAGUAAUUTT against Ghr
  z-score: inactive: 0.271

Additional entries follow.

| Sequence | z-score |
| --- | --- |
| GGUUUUUUAUUCCUGAUGGTT against Slc35f1 | inactive: -1.45 |
| GGCAAAUAUGAACGUGCACTT against Ptcd2 | inactive: -0.67 |
| GGCGAGUUCCAGAUUCUUCTT against Car3 | inactive: 1.69 |
| CGGGUGAAGAAACAAAAAUTT against Nap1l1 | inactive: -0.947 |
| CGAAAAUCAAGGGAGCUCATT against Rnf19a | inactive: 0.606 |
| GGAACAUGUUCUGCAUUUATT against Rab40b | inactive: -1.82 |
| GGAUUCCUGAUUUCUUCAUTT against Snip1 | inactive: 0.915 |
| CCACAUCUUCACAAUGUCCTT against Cdk8 | inactive: -0.981 |
| CGACAUAUAAAAUUGUUCCTT against Cobl | inactive: 0.842 |
| GCUUCAUGGAUGCAAUUGATT against Adhfe1 | inactive: -0.659 |
| GCCUAUGGACCUUAAUCGUTT against Cfap69 | inactive: -0.463 |
| GGACCAGAAGAGGAUGGUCTT against Ndn | inactive: -0.0237 |
| GCAACUCUUGGUUUCCUGUTT against Fam222b | inactive: 1.71 |
| GCCAUGUUAACAUGAUGAUTT against Lrrc14b | inactive: -1.38 |
| CGAAUUCACGAACUUGAGATT against Ccdc69 | inactive: 0.181 |
| CGUUAGUGCUGGUUAAUGATT against Cdk5r1 | inactive: -0.507 |
| GCUUAACAGGAGCAUUGGCTT against Raly | inactive: -0.0735 |
| GGAGAUGUCUGAUGUAACCTT against Abtb2 | inactive: -0.664 |
| GGAAAGCUACUGUCAGAGUTT against Olfr473 | inactive: -0.885 |
| GGGUAUGGAUAUGGAGGUGTT against Krt90 | inactive: -1.05 |
| GGCAAGGUCUUCAAAGCGCTT against Zbtb8a | inactive: -1.54 |
| CCACGAUUUCCCAAUCCUGTT against Fiz1 | inactive: -0.131 |

| Sequence | z-score |
| --- | --- |
| CCUAUCAUGUUAAAAACAGTT against Grem2 | inactive: -1.13 |
| GGACCACUAGACCUGAUAATT against Itgb1bp1 | inactive: 0.116 |
| GGACUUGGAGUUUCGUAAATT against Lmnb1 | active: 2.92 |
| GCCAUGCAAAUCGAUGGGUTT against Rora | active: -2.69 |
| GGAAUGGACCUCAAAAUUGTT against Vmp1 | inactive: 0.532 |
| GGAAAUUGUCUUUGGCUUUTT against Otop1 | inactive: -0.0923 |
| GGCUGUAAUGACGAAUACATT against Naa25 | inactive: 0.764 |
| CUUUGGUAGGAAACCUCUUTT against Olfr1281 | inactive: 0.5 |
| CGGACGACAUUACAAUUGATT against Nrxn2 | inactive: 0.123 |
| GAAACUGCUGCCUCACAUCTT against Rplp0 | inactive: -0.932 |
| GGUUGGCAUCAACUACCAATT against Tuba4a | inactive: 1.4 |
| GGCCUUAAUUAUGUCUUAGTT against Slc25a25 | inactive: 1.21 |
| CCGGUAUGGCAAAAGCCAUTT against Pomt1 | inactive: -0.118 |
| GGUUCUGUUCCCAUGAGAATT against Ntng2 | inactive: -0.934 |
| GGCUUCCAGUAAUGACAAUTT against Vwc2l | inactive: -1.67 |
| GGUAUUCUUGGUGUUAGAATT against Ldhal6b | inactive: -0.532 |
| GCCCUGUUUACACCUCUGATT against Sec23a | inactive: -1.38 |
| GGCUUCACAUUUUGGCAGUTT against Stat6 | inactive: -0.942 |
| GAUGUACUUAUUCAUGAUGTT against Olfr353 | inactive: 0.249 |
| GGUGUUAUGCAAAAUUCAGTT against Slc7a6 | inactive: 0.607 |
| GGUUAAACAGCUCCAUUUUTT against Padi2 | inactive: 0.582 |
| GCAUAAACAGCGACAAAUGTT against Mrpl36 | inactive: -1.24 |

| Sequence | z-score |
| --- | --- |
| GGUAGUGAUUACGAACCAATT against Hey1 | inactive: 0.605 |
| GGAUGUCUUUCCUACACGUTT against Mob3c | inactive: 0.402 |
| GGUCUGGAGAUUGUAUUUUTT against Ptpn21 | inactive: 0.18 |
| GGUGGUGACCUCCACAGAUTT against Clcnka | inactive: -1.09 |
| GGUGAACGGAUAUCCUGUGTT against Pdzd3 | inactive: -0.227 |
| GGAGGGUAGGUCCUUUGUATT against Pcdhb16 | inactive: -0.381 |
| GCCGCUGAACAAUUUAUCCTT against Rnase6 | inactive: -0.184 |
| GCUUGAAUCCGAUUUGUUATT against Gramd1c | inactive: 0.296 |
| GGAACAACAAAAAUUCCAATT against Tor1b | inactive: 1.12 |
| CGGCAAUGCGUUUCCUUUUTT against Lama4 | inactive: 1.58 |
| CCAAUUCAUGGUGUUCUUUTT against H2-Aa | inactive: 1.23 |
| GGCAGAAGCCUAAAACGGUTT against Nudt2 | inactive: 0.00394 |
| GGGUUCCAUAUGAUUGCUCTT against St18 | inactive: 0.137 |
| UCAUGGUCAUCUUUACCCUTT against Tmem259 | inactive: -1.03 |
| CCACCAAAAUUUCAUGAUATT against Eps15l1 | inactive: 0.364 |
| CCCAUGGUCACUUAUAUAUTT against Jarid2 | inactive: 0.109 |
| CCGGUCAUCUUUCUAUUAUTT against Adtrp | inactive: 1.69 |
| GGGCUUCUCUUUGCACUCUTT against Olfr1366 | inactive: 0.44 |
| GGUCAUCCGAGAUUUCACCTT against Elavl3 | inactive: -0.944 |
| CCAAACCAGUGGAGUCCAUTT against Slc7a14 | active: -2.26 |
| GCUAACCUUGUUUUACAAGTT against D030056L22Rik | inactive: 0.652 |
| GGAGGGUAAGACAAUGCACTT against Tmem17 | inactive: -0.62 |

Some of the entries so far, as comma-separated lines:
Sequence,z-score
GGGAGAAGAGAUUUUCUUGTT against Clec16a,inactive: 1.17
GGUUUUUUAUUCCUGAUGGTT against Slc35f1,inactive: -1.45
GGCAAAUAUGAACGUGCACTT against Ptcd2,inactive: -0.67
GGCGAGUUCCAGAUUCUUCTT against Car3,inactive: 1.69
CGGGUGAAGAAACAAAAAUTT against Nap1l1,inactive: -0.947
CGAAAAUCAAGGGAGCUCATT against Rnf19a,inactive: 0.606
GGAACAUGUUCUGCAUUUATT against Rab40b,inactive: -1.82
GGAUUCCUGAUUUCUUCAUTT against Snip1,inactive: 0.915
CCACAUCUUCACAAUGUCCTT against Cdk8,inactive: -0.981
CGACAUAUAAAAUUGUUCCTT against Cobl,inactive: 0.842
GCUUCAUGGAUGCAAUUGATT against Adhfe1,inactive: -0.659
GCCUAUGGACCUUAAUCGUTT against Cfap69,inactive: -0.463
GGACCAGAAGAGGAUGGUCTT against Ndn,inactive: -0.0237
GCAACUCUUGGUUUCCUGUTT against Fam222b,inactive: 1.71
GCCAUGUUAACAUGAUGAUTT against Lrrc14b,inactive: -1.38
CGAAUUCACGAACUUGAGATT against Ccdc69,inactive: 0.181
CGUUAGUGCUGGUUAAUGATT against Cdk5r1,inactive: -0.507
GCUUAACAGGAGCAUUGGCTT against Raly,inactive: -0.0735
GGAGAUGUCUGAUGUAACCTT against Abtb2,inactive: -0.664
GGAAAGCUACUGUCAGAGUTT against Olfr473,inactive: -0.885
GGGUAUGGAUAUGGAGGUGTT against Krt90,inactive: -1.05
GGCAAGGUCUUCAAAGCGCTT against Zbtb8a,inactive: -1.54
CCACGAUUUCCCAAUCCUGTT against Fiz1,inactive: -0.131
CCUAUCAUGUUAAAAACAGTT against Grem2,inactive: -1.13
GGACCACUAGACCUGAUAATT against Itgb1bp1,inactive: 0.116
GGACUUGGAGUUUCGUAAATT against Lmnb1,active: 2.92
GCCAUGCAAAUCGAUGGGUTT against Rora,active: -2.69
GGAAUGGACCUCAAAAUUGTT against Vmp1,inactive: 0.532
GGAAAUUGUCUUUGGCUUUTT against Otop1,inactive: -0.0923

More results:

| Sequence | z-score |
| --- | --- |
| GGGCUUAAGCUUUGAGGGUTT against Foxs1 | inactive: 0.213 |
| GCCCUACCAAAGACACUAGTT against Lrch4 | active: -2.31 |
| GGUUUUUGAUCUUUGUGUCTT against Nr2c1 | inactive: -1.57 |
| GGAAGAGGAGGUGACAUACTT against Exd1 | inactive: -1.15 |
| GCUUGUGGUCUUUAUCUUCTT against Olfr1490 | inactive: 0.596 |
| GGCAAUGUUUUUCUUGUUGTT against 9330132A10Rik | inactive: -1.12 |
| GCCUAAAGCGGCCAAACCATT against H1f4 | inactive: 0.905 |
| CCCUUUCAUUGUGCAUUAATT against Hdhd2 | active: -2.22 |
| GCUAUUUUUGUGGGUGAUUTT against Otx2 | inactive: -0.315 |
| GGAUAAGAAACGCAGAGUUTT against Dnmt1 | inactive: -0.83 |
| CGGCGAGGAGAAGAUAAAATT against Vps36 | inactive: 0.626 |
| GGCAGCAUAAGAGCUGUUCTT against Id3 | inactive: 0.106 |
| CCUAUUGUAGCAAGUUACATT against H3c7 | inactive: 1.15 |
| CCCAUGAACCUUAUUUGAATT against Ino80c | inactive: -0.268 |
| GGUUGGGCUGCCAAGUUUGTT against Fdx1 | inactive: 1.96 |
| GGGUGUUGGAAAUUAAUCUTT against Rpl31 | inactive: 0.79 |
| GCACCGUGUCGUUGACUUGTT against Trim56 | inactive: 0.566 |
| GGUGAUAAAUCCAAAAAAGTT against Cpne5 | inactive: -0.234 |
| CGACUGCAUUCAAACUACUTT against Uqcc2 | inactive: -0.0188 |
